Here are results for 17 compounds from the supplement of paper PMC4604168 (melanoma cell lines).

This is one part of the list. Many values rest on one well or one pass, so single values are uncertain.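 The apoptosis fraction was the count of cleaved-PARP antibody-stained nuclei relative to all DNA-stained nuclei, imaged in 1,536-well plates. Screening doses were set so most cells survived, and baseline and induced cleaved-PARP levels vary greatly across cell lines.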

This experiment concerns RVH-421. In words: cleaved PARP positive nuclei fraction relative to DMSO control; melanoma cells; higher = more apoptosis. The following applies: library dose: low library concentration; 72 h.
On to `C[C@@H]1CCN(C(=O)CC#N)C[C@@H]1N(C)c1ncnc2[nH]ccc12` + CC(C)CCN1c2nc(Nc3cc(F)c(O)c(F)c3)ncc2N(C)C(=O)C1C [BID1870] (first compound 1 µM, partner dose 0.2 µM), for which the “cleaved PARP positive nuclei fraction” value is 47.9%. Take `Cn1nnc2c(C(N)=O)ncn2c1=O` [temozolomide] + COc1ccc(-c2ccc3c(N4CCOCC4)nc(N4C[C@@H](C)O[C@@H](C)C4)nc3n2)cc1CO [KU0063794] (first compound 2 µM, partner dose 0.02 µM): the “cleaved PARP positive nuclei fraction” value was 251%. As for `Nc1cccc2c1CN(C1CCC(=O)NC1=O)C2=O` (configuration not stated) [lenalidomide] + CCN(CC)CCCCNc1ncc2cc(-c3cc(OC)cc(OC)c3)c(NC(=O)NC(C)(C)C)nc2n1 [PD173074] (first compound 1 µM, partner dose 0.1 µM), the “cleaved PARP positive nuclei fraction” value was found to be 49.3%. Consider `Cc1nc(Nc2ncc(C(=O)Nc3c(C)cccc3Cl)s2)cc(N2CCN(CCO)CC2)n1` [dasatanib] + CCCCCCCCCCCC1=C(O)C(=O)C=C(O)C1=O [Embelin] (first compound 0.004 µM, partner dose 1.2 µM), for which the “cleaved PARP positive nuclei fraction” value came to 139%. Turning to `O=C(Nc1cccc(Cl)c1)Nc1ncc(CCNc2ncnc3ccsc23)s1` + Cn1cc(/C=C2\C(=O)Nc3cccnc32)c2ccccc21 [GW441756] (first compound 0.0008 µM, partner dose 0.4 µM), the “cleaved PARP positive nuclei fraction” value was 24.8%. To `Nc1cccc2c1CN(C1CCC(=O)NC1=O)C2=O` (configuration not stated) [lenalidomide] + COc1ccc(COc2ccc(Cc3cnc(N)nc3N)cc2OC)cc1 [GW2580] (first compound 1 µM, partner dose 1 µM) belongs 27%; to `Cc1ccc(NC(=O)c2cccc(N(C)C)c2)cc1NC(=O)c1ccc(O)cc1` + O=c1cc(-c2cccc3c2Sc2ccccc2S3)oc(N2CCOCC2)c1 [KU55933] (first compound 2 µM, partner dose 1 µM), 54.3%. The value for `OCCn1cc(-c2cnc3nnn(Cc4ccc5ncccc5c4)c3n2)cn1` + Cc1cc([N+](=O)[O-])ccc1NS(=O)(=O)c1cc(Cl)ccc1Cl [FH535] (first compound 1 µM, partner dose 1 µM) was 112%; that for `Cn1cncc1[C@@](N)(c1ccc(Cl)cc1)c1ccc2c(c1)c(-c1cccc(Cl)c1)cc(=O)n2C` [tipifarnib] + O=c1cc(-c2cccc3c2Sc2ccccc2S3)oc(N2CCOCC2)c1 [KU55933] (first compound 0.01 µM, partner dose 1 µM) was 68.2%; that for `NC(=O)Nc1cc(-c2cccc(F)c2)sc1C(=O)N[C@H]1CCCNC1` + c1cc(-c2cnn3cc(-c4ccc(OCCN5CCCCC5)cc4)cnc23)ccn1 [Dorsomorphin] (first compound 0.02 µM, partner dose 0.4 µM) was 25.8%. To `O=C(Nc1cccc(Cl)c1)Nc1ncc(CCNc2ncnc3ccsc23)s1` + CCc1ccc(CCOc2ccc(CC3SC(=O)NC3=O)cc2)nc1 [pioglitazone] (first compound 0.0008 µM, partner dose 2 µM) belongs 165%. Regarding `C[C@]1(c2nc3c(C(N)=O)cccc3[nH]2)CCCN1` [Veliparib] + COc1ccc2c(c1)CCC1C2CCC2(C)C(NCCCCCCN3C(=O)C=CC3=O)CCC12 [U73122] (first compound 1.4 µM, partner dose 0.4 µM), the “cleaved PARP positive nuclei fraction” value was 53.2%.

As to `C[C@@H]1CCN(C(=O)CC#N)C[C@@H]1N(C)c1ncnc2[nH]ccc12` + COc1ccc2c(c1)CCC1C2CCC2(C)C(NCCCCCCN3C(=O)C=CC3=O)CCC12 [U73122] (first compound 1 µM, partner dose 0.4 µM), the “cleaved PARP positive nuclei fraction” value was 16.5%. To `OCCn1cc(-c2cnc3nnn(Cc4ccc5ncccc5c4)c3n2)cn1` + COC(=O)c1sccc1S(=O)(=O)Nc1ccc(Nc2ccccc2)cc1OC [GSK0660] (first compound 1 µM, partner dose 1 µM) belongs 98.2%; to `O=C(Nc1cccc(Cl)c1)Nc1ncc(CCNc2ncnc3ccsc23)s1` + Oc1nc(-c2ccc(C(F)(F)F)cc2)nc2c1CSCC2 [XAV939] (first compound 0.0008 µM, partner dose 2 µM), 59%; to `O=C(Nc1cccc(Cl)c1)Nc1ncc(CCNc2ncnc3ccsc23)s1` + COc1cc2ncnc(Nc3ccc(Oc4ccccc4)cc3)c2cc1OC [SrcI1] (first compound 0.0008 µM, partner dose 2 µM), 50.2%. As to `COc1cc(Nc2ncc(F)c(Nc3ccc4c(n3)NC(=O)C(C)(C)O4)n2)cc(OC)c1OC` [Tamatinib] + COc1cc(N2CCC(N3CCN(C)CC3)CC2)ccc1Nc1ncc(Cl)c(Nc2ccccc2S(=O)(=O)C(C)C)n1 [NVP-TAE684] (first compound 0.4 µM, partner dose 0.08 µM), the “cleaved PARP positive nuclei fraction” value was determined as 40.8%.
